Measured values: PMC9161502
Where two headings read alike, the source gives them in different places. Results are given in words; binding and its absence hold for the method and conditions named. In cells and extracts the contact can be indirect. For some assays here: Sequences can lack the tags named with a protein.

Sequences of proteins named here, by UniProt entry; tags and fusion partners are left off.
UniProt A2BH40: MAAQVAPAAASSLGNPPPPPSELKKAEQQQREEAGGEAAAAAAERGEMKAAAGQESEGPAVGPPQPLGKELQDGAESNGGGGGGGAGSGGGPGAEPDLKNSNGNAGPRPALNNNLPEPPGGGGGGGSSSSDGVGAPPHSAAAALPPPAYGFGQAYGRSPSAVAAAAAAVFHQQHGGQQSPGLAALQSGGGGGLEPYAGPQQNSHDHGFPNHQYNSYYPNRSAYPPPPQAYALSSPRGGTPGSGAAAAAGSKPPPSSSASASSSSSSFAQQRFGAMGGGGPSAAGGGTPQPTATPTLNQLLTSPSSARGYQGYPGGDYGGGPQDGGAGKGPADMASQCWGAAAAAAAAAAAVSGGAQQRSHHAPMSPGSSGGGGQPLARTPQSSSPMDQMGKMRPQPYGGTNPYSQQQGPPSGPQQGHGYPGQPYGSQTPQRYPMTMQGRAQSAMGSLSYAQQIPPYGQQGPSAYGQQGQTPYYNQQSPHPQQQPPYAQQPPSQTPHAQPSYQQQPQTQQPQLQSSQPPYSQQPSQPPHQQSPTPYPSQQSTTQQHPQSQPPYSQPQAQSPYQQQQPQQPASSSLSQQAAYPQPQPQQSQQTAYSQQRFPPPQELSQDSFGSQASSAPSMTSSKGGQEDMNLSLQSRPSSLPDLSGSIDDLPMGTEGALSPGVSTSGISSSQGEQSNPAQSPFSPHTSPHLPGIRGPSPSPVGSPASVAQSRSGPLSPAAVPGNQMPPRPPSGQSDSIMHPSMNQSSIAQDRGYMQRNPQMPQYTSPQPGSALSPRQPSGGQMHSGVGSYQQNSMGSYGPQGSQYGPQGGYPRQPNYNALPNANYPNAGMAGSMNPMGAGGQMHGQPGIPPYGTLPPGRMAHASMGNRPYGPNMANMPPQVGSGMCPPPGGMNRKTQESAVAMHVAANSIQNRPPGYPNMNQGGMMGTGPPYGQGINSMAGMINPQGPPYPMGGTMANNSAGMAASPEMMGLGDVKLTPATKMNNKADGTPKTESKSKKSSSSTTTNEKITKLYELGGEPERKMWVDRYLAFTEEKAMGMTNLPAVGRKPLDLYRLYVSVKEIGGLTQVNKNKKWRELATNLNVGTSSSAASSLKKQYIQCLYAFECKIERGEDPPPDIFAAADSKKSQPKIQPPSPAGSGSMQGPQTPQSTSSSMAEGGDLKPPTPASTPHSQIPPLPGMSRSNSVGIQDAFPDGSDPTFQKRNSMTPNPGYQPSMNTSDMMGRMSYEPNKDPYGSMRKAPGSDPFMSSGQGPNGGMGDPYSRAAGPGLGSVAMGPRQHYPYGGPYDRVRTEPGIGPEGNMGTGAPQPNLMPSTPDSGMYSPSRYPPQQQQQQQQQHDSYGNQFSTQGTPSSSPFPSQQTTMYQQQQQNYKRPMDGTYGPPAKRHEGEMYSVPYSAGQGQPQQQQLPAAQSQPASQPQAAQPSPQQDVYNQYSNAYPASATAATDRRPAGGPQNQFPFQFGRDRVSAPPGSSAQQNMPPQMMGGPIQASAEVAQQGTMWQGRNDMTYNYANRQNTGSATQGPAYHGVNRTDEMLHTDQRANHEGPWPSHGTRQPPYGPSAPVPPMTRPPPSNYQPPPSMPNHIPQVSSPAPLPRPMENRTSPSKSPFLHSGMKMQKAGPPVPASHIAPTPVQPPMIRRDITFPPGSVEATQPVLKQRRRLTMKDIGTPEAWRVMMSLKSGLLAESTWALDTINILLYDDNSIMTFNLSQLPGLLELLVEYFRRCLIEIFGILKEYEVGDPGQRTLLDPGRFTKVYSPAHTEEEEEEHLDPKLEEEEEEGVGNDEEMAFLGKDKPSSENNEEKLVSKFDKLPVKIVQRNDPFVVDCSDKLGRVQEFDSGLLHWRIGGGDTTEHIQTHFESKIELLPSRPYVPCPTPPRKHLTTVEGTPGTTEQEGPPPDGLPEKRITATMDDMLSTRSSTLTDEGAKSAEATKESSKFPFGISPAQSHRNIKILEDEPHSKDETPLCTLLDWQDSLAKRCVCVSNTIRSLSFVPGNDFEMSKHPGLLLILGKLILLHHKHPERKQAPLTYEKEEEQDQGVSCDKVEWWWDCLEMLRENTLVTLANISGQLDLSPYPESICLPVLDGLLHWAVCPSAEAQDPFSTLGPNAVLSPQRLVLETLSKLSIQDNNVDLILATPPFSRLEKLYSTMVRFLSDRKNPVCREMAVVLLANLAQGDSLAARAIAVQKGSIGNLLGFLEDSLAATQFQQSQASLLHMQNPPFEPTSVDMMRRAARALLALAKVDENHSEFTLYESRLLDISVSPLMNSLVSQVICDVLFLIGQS
UniProt Q6PDQ2: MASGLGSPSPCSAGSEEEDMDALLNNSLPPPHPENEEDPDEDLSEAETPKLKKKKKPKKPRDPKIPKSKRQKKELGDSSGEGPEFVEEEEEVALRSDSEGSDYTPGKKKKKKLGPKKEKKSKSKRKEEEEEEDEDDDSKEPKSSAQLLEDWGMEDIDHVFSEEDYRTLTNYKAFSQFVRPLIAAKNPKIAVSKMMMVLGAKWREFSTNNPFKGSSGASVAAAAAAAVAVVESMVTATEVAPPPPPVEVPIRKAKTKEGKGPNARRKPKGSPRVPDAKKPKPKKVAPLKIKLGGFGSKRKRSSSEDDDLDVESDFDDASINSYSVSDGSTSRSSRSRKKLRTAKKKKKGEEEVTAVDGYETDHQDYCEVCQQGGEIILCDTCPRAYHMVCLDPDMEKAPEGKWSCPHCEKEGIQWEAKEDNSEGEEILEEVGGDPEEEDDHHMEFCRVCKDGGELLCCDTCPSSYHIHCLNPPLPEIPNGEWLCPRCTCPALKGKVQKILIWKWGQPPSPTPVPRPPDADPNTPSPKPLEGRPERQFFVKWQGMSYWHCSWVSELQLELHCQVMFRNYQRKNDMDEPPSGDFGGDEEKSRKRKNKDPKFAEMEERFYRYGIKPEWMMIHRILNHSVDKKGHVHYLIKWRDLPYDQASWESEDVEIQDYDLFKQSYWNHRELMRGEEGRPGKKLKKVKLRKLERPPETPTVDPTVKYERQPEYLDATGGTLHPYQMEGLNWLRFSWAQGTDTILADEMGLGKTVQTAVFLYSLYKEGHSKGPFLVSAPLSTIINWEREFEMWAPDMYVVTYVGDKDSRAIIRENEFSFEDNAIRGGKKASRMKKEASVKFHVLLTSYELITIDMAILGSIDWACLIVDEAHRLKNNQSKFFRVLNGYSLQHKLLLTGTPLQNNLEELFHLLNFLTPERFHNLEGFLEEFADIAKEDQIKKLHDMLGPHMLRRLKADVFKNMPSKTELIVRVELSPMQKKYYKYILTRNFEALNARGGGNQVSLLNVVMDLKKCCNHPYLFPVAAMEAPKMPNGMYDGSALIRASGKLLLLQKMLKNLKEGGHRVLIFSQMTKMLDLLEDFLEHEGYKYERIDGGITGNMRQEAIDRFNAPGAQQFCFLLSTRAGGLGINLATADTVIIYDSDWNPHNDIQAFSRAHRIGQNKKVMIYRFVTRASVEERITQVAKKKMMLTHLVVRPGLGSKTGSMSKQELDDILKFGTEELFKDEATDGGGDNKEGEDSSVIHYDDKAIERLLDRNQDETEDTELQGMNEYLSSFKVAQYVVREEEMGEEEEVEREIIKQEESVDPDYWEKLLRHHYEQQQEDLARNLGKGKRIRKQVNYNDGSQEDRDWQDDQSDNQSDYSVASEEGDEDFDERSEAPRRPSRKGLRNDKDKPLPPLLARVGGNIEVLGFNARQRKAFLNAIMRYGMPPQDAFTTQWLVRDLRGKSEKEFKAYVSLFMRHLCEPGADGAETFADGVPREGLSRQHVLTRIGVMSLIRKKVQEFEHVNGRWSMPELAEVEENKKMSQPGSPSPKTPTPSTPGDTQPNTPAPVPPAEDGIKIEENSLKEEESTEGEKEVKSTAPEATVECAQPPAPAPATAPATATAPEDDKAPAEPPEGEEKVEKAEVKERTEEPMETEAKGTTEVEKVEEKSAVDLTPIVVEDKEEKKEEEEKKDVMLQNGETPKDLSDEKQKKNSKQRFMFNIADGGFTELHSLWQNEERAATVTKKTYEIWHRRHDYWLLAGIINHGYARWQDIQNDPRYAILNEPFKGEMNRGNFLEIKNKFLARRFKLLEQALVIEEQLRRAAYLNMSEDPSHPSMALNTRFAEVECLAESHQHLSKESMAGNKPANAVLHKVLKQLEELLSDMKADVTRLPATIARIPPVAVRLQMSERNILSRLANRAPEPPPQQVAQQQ

Key:
3 × Flag-POGZ (mouse) = target: T1, 3 × Flag-POGZ (mouse) (UniProt Q8BZH4); assay: co-IP; FLAG-POGZ Pogz−/− ESCs; total cell lysate with antibody-conjugated Dynabeads Protein G overnight at 4 °C, three washes with PBS 0.1% Tween; Western blot
T1 sequence: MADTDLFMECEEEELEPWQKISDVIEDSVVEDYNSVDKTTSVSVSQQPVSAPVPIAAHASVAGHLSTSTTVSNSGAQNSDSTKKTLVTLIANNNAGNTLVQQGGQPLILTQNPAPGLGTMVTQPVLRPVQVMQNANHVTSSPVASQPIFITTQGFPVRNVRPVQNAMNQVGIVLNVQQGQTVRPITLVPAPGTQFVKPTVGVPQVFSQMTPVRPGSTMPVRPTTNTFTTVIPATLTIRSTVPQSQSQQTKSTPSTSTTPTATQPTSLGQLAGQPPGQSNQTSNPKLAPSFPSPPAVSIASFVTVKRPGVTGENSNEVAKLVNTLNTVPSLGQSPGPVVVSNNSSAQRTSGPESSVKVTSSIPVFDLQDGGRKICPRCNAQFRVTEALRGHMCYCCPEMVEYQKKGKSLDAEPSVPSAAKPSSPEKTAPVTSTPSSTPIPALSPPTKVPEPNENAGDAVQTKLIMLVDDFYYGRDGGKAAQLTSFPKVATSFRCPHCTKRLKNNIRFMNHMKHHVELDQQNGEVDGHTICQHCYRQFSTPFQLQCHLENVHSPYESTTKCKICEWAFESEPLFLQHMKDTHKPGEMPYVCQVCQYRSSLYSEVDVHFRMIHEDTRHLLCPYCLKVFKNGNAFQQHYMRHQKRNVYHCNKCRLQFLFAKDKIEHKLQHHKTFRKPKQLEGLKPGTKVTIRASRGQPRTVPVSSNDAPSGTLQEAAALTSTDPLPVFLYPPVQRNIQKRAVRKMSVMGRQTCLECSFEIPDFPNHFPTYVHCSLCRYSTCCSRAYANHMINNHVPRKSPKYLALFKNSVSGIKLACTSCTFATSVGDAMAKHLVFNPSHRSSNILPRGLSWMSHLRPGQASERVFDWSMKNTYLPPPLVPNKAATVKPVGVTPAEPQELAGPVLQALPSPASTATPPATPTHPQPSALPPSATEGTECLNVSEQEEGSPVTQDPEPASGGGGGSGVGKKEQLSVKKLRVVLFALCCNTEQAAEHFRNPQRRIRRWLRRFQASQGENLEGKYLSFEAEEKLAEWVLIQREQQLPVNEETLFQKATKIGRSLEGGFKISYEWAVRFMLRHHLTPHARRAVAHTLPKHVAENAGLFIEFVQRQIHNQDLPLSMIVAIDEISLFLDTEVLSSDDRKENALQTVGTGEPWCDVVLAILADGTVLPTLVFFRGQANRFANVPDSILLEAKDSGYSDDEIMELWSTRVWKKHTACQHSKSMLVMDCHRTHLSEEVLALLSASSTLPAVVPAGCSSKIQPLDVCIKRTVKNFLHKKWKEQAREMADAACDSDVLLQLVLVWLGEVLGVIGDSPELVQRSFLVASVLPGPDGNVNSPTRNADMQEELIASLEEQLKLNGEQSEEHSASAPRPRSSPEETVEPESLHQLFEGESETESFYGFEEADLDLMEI

[1] = target: T2, POGZ (endogenous, mouse ESCs) (mouse (endogenous in mESCs R1)) (UniProt Q8BZH4); assay: co-IP; endogenous proteins in WT ESCs; total cell lysate with antibody-conjugated Dynabeads Protein G overnight at 4 °C, three washes with PBS 0.1% Tween; Western blot
T2 sequence: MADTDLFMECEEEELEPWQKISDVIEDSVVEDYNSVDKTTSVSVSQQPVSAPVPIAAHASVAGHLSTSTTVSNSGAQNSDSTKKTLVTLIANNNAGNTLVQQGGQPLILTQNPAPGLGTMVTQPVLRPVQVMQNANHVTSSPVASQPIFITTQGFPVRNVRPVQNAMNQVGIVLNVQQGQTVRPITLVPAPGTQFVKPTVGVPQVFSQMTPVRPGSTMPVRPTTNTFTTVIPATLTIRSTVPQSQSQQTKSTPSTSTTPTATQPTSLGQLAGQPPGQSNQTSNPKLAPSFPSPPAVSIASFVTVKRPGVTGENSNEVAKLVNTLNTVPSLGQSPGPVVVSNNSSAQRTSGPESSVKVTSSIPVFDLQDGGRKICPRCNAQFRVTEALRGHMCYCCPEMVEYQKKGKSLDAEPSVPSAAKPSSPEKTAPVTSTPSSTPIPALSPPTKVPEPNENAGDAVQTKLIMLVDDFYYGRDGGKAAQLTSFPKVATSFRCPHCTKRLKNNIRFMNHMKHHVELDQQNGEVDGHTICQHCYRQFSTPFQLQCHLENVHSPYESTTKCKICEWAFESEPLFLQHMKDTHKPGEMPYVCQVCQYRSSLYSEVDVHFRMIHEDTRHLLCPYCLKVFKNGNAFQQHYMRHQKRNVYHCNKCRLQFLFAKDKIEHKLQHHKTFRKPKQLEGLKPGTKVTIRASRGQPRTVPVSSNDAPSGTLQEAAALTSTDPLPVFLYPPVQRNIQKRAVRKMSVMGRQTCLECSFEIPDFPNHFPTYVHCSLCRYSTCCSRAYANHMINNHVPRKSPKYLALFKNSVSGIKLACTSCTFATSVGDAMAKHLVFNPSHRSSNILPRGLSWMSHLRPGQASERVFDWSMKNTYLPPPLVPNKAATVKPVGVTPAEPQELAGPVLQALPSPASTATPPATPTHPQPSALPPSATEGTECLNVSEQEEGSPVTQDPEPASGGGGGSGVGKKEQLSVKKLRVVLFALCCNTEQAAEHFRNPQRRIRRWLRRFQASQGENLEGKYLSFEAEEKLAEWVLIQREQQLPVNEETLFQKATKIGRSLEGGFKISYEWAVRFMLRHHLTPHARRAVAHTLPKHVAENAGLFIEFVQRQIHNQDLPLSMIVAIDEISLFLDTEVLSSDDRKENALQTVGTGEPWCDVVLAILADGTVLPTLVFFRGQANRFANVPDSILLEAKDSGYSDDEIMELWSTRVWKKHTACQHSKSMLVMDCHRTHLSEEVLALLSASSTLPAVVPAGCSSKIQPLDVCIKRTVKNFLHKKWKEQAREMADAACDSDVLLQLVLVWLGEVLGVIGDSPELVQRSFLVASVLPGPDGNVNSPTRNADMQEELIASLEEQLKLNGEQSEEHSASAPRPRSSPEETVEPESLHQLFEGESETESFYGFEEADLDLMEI

[2] = target: T2, POGZ (endogenous, mouse ESCs) (mouse (endogenous in mESCs R1)); assay: as above; remark: listed apart in the source
[3] = target: T3, ADNP (mouse (endogenous in mESCs)) (UniProt Q9Z103); assay: as above
T3 sequence: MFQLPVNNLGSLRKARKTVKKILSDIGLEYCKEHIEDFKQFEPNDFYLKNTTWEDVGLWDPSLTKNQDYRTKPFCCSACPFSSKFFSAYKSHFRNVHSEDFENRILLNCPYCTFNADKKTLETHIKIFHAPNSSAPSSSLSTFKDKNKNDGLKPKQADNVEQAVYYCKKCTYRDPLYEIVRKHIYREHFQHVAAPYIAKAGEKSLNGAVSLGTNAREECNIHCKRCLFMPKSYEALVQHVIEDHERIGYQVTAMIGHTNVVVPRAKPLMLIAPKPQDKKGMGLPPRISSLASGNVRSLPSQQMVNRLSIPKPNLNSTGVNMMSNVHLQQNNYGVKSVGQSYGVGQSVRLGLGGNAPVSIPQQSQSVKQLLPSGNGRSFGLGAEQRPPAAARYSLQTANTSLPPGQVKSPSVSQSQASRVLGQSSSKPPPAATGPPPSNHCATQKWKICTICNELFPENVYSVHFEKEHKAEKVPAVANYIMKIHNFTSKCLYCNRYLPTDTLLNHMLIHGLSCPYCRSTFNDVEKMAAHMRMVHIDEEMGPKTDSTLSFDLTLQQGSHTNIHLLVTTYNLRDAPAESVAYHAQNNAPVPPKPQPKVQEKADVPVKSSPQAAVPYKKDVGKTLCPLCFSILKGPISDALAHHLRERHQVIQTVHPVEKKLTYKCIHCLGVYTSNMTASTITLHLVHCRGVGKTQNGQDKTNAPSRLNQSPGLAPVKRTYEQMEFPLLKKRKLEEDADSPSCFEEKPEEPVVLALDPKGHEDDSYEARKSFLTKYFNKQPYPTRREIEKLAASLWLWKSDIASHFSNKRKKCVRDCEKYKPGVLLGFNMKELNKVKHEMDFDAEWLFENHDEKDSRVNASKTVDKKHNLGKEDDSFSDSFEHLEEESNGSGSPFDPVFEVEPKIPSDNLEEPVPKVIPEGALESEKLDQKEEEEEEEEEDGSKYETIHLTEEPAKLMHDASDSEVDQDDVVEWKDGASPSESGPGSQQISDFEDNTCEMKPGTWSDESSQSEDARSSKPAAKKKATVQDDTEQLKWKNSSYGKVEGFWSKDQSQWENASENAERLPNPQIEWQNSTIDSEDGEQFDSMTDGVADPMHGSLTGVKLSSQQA

How did the binding (3 × Flag-POGZ (mouse)) turn out when “ARID1A/BAF250a (from UniProt A2BH40 1-2283)” was run?
Its binding is “no binding”.

Which binding [1] does the source give for CHD4 (from UniProt Q6PDQ2 1-1915) here?
Its binding is “no binding”.

What about the binding (3 × Flag-POGZ (mouse)) of the same molecule?
Its binding is “no binding”.

B1: ADNP (protein, UniProt Q9Z103 1-1108)
chain: MFQLPVNNLGSLRKARKTVKKILSDIGLEYCKEHIEDFKQFEPNDFYLKNTTWEDVGLWDPSLTKNQDYRTKPFCCSACPFSSKFFSAYKSHFRNVHSEDFENRILLNCPYCTFNADKKTLETHIKIFHAPNSSAPSSSLSTFKDKNKNDGLKPKQADNVEQAVYYCKKCTYRDPLYEIVRKHIYREHFQHVAAPYIAKAGEKSLNGAVSLGTNAREECNIHCKRCLFMPKSYEALVQHVIEDHERIGYQVTAMIGHTNVVVPRAKPLMLIAPKPQDKKGMGLPPRISSLASGNVRSLPSQQMVNRLSIPKPNLNSTGVNMMSNVHLQQNNYGVKSVGQSYGVGQSVRLGLGGNAPVSIPQQSQSVKQLLPSGNGRSFGLGAEQRPPAAARYSLQTANTSLPPGQVKSPSVSQSQASRVLGQSSSKPPPAATGPPPSNHCATQKWKICTICNELFPENVYSVHFEKEHKAEKVPAVANYIMKIHNFTSKCLYCNRYLPTDTLLNHMLIHGLSCPYCRSTFNDVEKMAAHMRMVHIDEEMGPKTDSTLSFDLTLQQGSHTNIHLLVTTYNLRDAPAESVAYHAQNNAPVPPKPQPKVQEKADVPVKSSPQAAVPYKKDVGKTLCPLCFSILKGPISDALAHHLRERHQVIQTVHPVEKKLTYKCIHCLGVYTSNMTASTITLHLVHCRGVGKTQNGQDKTNAPSRLNQSPGLAPVKRTYEQMEFPLLKKRKLEEDADSPSCFEEKPEEPVVLALDPKGHEDDSYEARKSFLTKYFNKQPYPTRREIEKLAASLWLWKSDIASHFSNKRKKCVRDCEKYKPGVLLGFNMKELNKVKHEMDFDAEWLFENHDEKDSRVNASKTVDKKHNLGKEDDSFSDSFEHLEEESNGSGSPFDPVFEVEPKIPSDNLEEPVPKVIPEGALESEKLDQKEEEEEEEEEDGSKYETIHLTEEPAKLMHDASDSEVDQDDVVEWKDGASPSESGPGSQQISDFEDNTCEMKPGTWSDESSQSEDARSSKPAAKKKATVQDDTEQLKWKNSSYGKVEGFWSKDQSQWENASENAERLPNPQIEWQNSTIDSEDGEQFDSMTDGVADPMHGSLTGVKLSSQQA
How did the binding [2] turn out when B1 was run?
The binding was “no binding”.

B2: POGZ (endogenous, mouse ESCs) (protein, UniProt Q8BZH4 1-1409)
chain: MADTDLFMECEEEELEPWQKISDVIEDSVVEDYNSVDKTTSVSVSQQPVSAPVPIAAHASVAGHLSTSTTVSNSGAQNSDSTKKTLVTLIANNNAGNTLVQQGGQPLILTQNPAPGLGTMVTQPVLRPVQVMQNANHVTSSPVASQPIFITTQGFPVRNVRPVQNAMNQVGIVLNVQQGQTVRPITLVPAPGTQFVKPTVGVPQVFSQMTPVRPGSTMPVRPTTNTFTTVIPATLTIRSTVPQSQSQQTKSTPSTSTTPTATQPTSLGQLAGQPPGQSNQTSNPKLAPSFPSPPAVSIASFVTVKRPGVTGENSNEVAKLVNTLNTVPSLGQSPGPVVVSNNSSAQRTSGPESSVKVTSSIPVFDLQDGGRKICPRCNAQFRVTEALRGHMCYCCPEMVEYQKKGKSLDAEPSVPSAAKPSSPEKTAPVTSTPSSTPIPALSPPTKVPEPNENAGDAVQTKLIMLVDDFYYGRDGGKAAQLTSFPKVATSFRCPHCTKRLKNNIRFMNHMKHHVELDQQNGEVDGHTICQHCYRQFSTPFQLQCHLENVHSPYESTTKCKICEWAFESEPLFLQHMKDTHKPGEMPYVCQVCQYRSSLYSEVDVHFRMIHEDTRHLLCPYCLKVFKNGNAFQQHYMRHQKRNVYHCNKCRLQFLFAKDKIEHKLQHHKTFRKPKQLEGLKPGTKVTIRASRGQPRTVPVSSNDAPSGTLQEAAALTSTDPLPVFLYPPVQRNIQKRAVRKMSVMGRQTCLECSFEIPDFPNHFPTYVHCSLCRYSTCCSRAYANHMINNHVPRKSPKYLALFKNSVSGIKLACTSCTFATSVGDAMAKHLVFNPSHRSSNILPRGLSWMSHLRPGQASERVFDWSMKNTYLPPPLVPNKAATVKPVGVTPAEPQELAGPVLQALPSPASTATPPATPTHPQPSALPPSATEGTECLNVSEQEEGSPVTQDPEPASGGGGGSGVGKKEQLSVKKLRVVLFALCCNTEQAAEHFRNPQRRIRRWLRRFQASQGENLEGKYLSFEAEEKLAEWVLIQREQQLPVNEETLFQKATKIGRSLEGGFKISYEWAVRFMLRHHLTPHARRAVAHTLPKHVAENAGLFIEFVQRQIHNQDLPLSMIVAIDEISLFLDTEVLSSDDRKENALQTVGTGEPWCDVVLAILADGTVLPTLVFFRGQANRFANVPDSILLEAKDSGYSDDEIMELWSTRVWKKHTACQHSKSMLVMDCHRTHLSEEVLALLSASSTLPAVVPAGCSSKIQPLDVCIKRTVKNFLHKKWKEQAREMADAACDSDVLLQLVLVWLGEVLGVIGDSPELVQRSFLVASVLPGPDGNVNSPTRNADMQEELIASLEEQLKLNGEQSEEHSASAPRPRSSPEETVEPESLHQLFEGESETESFYGFEEADLDLMEI
With B2 as the molecule, how does the binding [3] read?
Its binding is “no binding”.
